In data set [1] the target is T1, SPARC, recombinant human expressed in E. coli (Homo sapiens) (UniProt P09486).
T1 sequence (looked up, limits assumed): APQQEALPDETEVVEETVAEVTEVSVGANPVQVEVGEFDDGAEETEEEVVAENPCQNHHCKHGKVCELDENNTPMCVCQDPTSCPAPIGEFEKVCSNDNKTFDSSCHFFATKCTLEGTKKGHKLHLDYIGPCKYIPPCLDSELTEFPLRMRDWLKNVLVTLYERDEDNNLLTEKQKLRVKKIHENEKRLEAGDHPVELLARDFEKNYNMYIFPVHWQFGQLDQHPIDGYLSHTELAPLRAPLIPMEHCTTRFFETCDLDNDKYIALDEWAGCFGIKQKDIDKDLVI
The experiment in a line: SPR. The note with it: aptamer immobilized on SA chip; purified recombinant protein; protein details: E. coli expressed; label: 3'-biotin; single-stranded DNA; variant of Apt180.

Data set [2] concerns the target T2, SPARC (osteonectin), recombinant human (Biol-SPARC) (Homo sapiens) (UniProt P09486).
T2 sequence (looked up, limits assumed): T1 sequence (looked up, limits assumed)
The experiment in a line: SPR. The note with it: aptamer immobilized on SA chip; heterogeneous ligand model KD2; KD1 362 nM; purified recombinant protein; label: 3'-biotin; single-stranded DNA; variant of Apt180.

The exact form of at least one protein or probe is not confirmed. Where a protein sequence is shown, tags need not be part of it.

The Kd is the concentration at which binding is half-saturated. “GAATTCGATGGTAACCAAGGCTGTTCGGTATTTTGATATTTTTATGCGTCATCTGATCTAGCCAAG [Apt180 3'-biotin]”: the Kd in data set [1] was found to be 52.5 nM; in data set [2], 0.174 nM.

Values taken from patent publication US20130195757, “SPARC BINDING APTAMERS AND USES THEREOF” (ABRAXIS BIOSCIENCE, LLC, published 2013).
